Consider nine sequences from article PMC4839565, “Evolution of Telomeres in Schizosaccharomyces pombe and Its Possible Relationship to the Diversification of Telomere Binding Proteins”.

Weaker means in comparison with the reference protein, sequence or condition of that experiment. Where a protein sequence is shown, tags need not be part of it. The exact form of at least one protein or probe is not confirmed. At least one verdict rests on a figure or table, not on a statement of the authors.

In data set [1] the target is T1, Teb1p (6HN-Teb1) (Schizosaccharomyces pombe) (UniProt Q10274).
T1 sequence (looked up): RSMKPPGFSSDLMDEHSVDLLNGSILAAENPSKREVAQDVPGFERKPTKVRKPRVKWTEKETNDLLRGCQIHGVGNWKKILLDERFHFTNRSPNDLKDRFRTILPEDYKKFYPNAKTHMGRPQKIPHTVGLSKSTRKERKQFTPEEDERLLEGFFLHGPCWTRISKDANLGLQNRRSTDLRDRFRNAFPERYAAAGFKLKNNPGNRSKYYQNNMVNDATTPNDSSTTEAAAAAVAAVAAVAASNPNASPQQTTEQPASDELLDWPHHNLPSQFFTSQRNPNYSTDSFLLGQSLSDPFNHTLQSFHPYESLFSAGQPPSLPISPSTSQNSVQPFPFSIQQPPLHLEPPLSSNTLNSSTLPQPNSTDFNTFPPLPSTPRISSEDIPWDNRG
Nature of the data set: EMSA. Particulars: no DTT, EMSA: 15 nM DNA, 0.05-4.5 uM protein, room temperature 10 min, recombinant protein, residues 2-390. In general terms: In EMSA bound probe runs differently from free probe, usually more slowly.

Data set [2] addresses T2, Taz1p (6HN-Taz1) (Schizosaccharomyces pombe) (UniProt P79005).
T2 sequence (looked up): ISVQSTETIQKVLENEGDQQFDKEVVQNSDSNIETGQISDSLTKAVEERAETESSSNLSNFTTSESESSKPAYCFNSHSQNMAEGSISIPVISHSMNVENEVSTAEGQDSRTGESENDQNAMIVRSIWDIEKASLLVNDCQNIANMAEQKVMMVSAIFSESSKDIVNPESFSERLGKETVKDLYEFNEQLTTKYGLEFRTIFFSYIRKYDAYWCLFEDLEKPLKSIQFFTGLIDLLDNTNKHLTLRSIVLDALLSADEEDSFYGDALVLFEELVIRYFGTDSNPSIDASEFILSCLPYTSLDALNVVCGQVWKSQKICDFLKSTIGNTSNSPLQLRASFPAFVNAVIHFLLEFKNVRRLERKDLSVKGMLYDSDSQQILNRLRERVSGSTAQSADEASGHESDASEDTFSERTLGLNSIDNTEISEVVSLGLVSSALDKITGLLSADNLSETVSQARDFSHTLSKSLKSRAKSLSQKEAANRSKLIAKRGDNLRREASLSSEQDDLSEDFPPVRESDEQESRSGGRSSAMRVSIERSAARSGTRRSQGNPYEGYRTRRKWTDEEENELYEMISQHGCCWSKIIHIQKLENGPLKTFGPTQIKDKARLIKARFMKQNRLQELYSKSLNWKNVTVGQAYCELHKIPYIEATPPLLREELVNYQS
Nature of the data set: EMSA. Particulars: 0.1 mM DTT, EMSA: 15 nM DNA, 0.05-4.5 uM protein, room temperature 10 min, recombinant protein, residues 2-663, protein details: N-terminal 6HN.

The mark [3] stands for this setting: better than SpTEL, complex unstable, label: 5'-32P on strand A.

With “GAAATTAGGGTTGTGAT (double strand) [HisBoxFlank5']”, the binding result is “binds more weakly” in data set [1] (label: 5'-32P on strand A) and “binds” in data set [2] (label: 5'-32P on strand A).
With “AGGGTGTGAGTTGTGAT (double strand) [HisBoxMut]”, in data set [2] (bound only at highest concentration, label: 5'-32P on strand A), the binding result was “binds more weakly”.
As for “TTACAGGGGGTTAGAGGG (double strand) [SpTEL-M1]”, the binding result in data set [1] (setting [3]) is “binds more weakly”.
As for “AGGGTTAGGGCCACAGC (double strand) [HisBoxFlank3']”, the binding result in data set [1] (label: 5'-32P on strand A) and in data set [2] (label: 5'-32P on strand A) was “binds more weakly” throughout.
Regarding “TTACAGGGGGTTAGGGGG (double strand) [SpTEL-M3]”, the binding result in data set [1] (label: 5'-32P on strand A) was “binds”.
With “TTACAGGGGGTTACAGGG (double strand) [SpTEL]”, in data set [1], the binding result was “binds more weakly”.
On to “TTACAGGGGGTTACGGGG (double strand) [SpTEL-M2]”, for which the binding result in data set [1] (setting [3]) is reported as “binds more weakly”.
With “AGGGTTAGGGTTGTGAT (double strand) [HisBox]”, the binding result in data set [2] is reported as “binds more weakly”.
For the sequence “GAAATTAGGGCCACAGC (double strand) [HisBoxFlank]”, the binding result in data set [1] (label: 5'-32P on strand A) and in data set [2] (label: 5'-32P on strand A) was “binds more weakly” in each case.
